# Measurements: PMC11750091
# T1: PoFbx23 fused with the TAP tag (FLAG-HA) (Penicillium oxalicum) (UniProt S7ZS07)
# T1 sequence: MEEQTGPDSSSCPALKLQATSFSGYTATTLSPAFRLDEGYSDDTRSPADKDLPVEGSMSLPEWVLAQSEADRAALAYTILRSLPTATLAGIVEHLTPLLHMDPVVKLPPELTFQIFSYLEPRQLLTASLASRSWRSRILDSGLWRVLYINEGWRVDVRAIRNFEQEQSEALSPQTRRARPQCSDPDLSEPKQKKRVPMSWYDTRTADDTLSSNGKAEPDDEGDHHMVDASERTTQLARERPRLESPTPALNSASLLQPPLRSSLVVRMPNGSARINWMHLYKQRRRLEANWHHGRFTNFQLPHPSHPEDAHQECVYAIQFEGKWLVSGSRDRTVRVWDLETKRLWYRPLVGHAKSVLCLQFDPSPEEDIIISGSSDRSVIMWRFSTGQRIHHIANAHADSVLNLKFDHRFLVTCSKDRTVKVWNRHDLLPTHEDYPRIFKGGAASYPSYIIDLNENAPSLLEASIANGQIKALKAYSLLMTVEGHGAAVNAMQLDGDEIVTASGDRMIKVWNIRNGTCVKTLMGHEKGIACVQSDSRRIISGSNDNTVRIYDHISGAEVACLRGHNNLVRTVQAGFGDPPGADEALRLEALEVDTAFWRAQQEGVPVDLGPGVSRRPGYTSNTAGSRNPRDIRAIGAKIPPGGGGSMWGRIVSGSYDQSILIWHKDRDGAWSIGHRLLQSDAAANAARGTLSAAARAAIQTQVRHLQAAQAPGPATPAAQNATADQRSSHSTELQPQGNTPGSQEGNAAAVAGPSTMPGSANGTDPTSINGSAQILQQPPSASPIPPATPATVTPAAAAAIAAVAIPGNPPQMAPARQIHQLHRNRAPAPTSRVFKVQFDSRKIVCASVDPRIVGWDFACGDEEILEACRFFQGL
# T2: PoAce1 fused with the TAP tag (HA-FLAG) at the C-terminus (Penicillium oxalicum) (UniProt S8AYJ0)
# T2 sequence: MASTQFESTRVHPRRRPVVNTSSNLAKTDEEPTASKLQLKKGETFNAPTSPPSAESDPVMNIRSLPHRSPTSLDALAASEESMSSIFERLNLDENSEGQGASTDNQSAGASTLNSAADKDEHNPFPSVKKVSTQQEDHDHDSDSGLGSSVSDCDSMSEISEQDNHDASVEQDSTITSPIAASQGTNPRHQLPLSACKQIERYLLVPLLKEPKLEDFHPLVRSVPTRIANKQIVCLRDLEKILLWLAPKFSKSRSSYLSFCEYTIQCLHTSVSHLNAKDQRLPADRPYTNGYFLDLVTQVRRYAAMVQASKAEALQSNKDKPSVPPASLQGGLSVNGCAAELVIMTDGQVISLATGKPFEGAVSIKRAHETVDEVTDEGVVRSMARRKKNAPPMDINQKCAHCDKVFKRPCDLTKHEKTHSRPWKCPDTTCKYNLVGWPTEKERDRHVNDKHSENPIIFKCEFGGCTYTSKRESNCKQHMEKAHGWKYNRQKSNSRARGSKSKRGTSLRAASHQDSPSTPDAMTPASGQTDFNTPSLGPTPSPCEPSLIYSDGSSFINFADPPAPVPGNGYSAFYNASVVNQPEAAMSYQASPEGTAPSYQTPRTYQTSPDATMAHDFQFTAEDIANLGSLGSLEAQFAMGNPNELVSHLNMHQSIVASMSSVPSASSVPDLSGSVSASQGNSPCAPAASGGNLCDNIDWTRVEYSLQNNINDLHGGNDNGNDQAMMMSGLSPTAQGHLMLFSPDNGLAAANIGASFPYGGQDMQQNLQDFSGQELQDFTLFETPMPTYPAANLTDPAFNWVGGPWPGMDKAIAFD
# Biological target: T1, PoFbx23 fused with the TAP tag (FLAG-HA) (Penicillium oxalicum)
# Assay: affinity purification with mass spectrometry; TAP-MS with PoFbx23-HA-FLAG as bait; two-step tandem purification, LC-MS/MS; WT with native PoFbx23 as control; two Fbx23-TAP samples
row,binding,Binder
1,binds,"PDE_09448 (Zn2Cys6 class fungal-specific transcription factor) (protein, UniProt S7ZVN6 1-924) MSGYHAGPFGHSGDNPYQLPPPRTPANLQYGPDPFLRQRDSERSDLVREAVPADAASVRQPNEPLPSVRSLLTPTTGPGSPPAFRQPRYGIQTPAESHRDMGYPFRPQETVFPPLQMGTLDRRRSESLPHSQPTSLPPLSHVAMGGSAEVDHHHHTTRSDPSTAKSSHAHLSPRNNSHSELMPSAEISSPESVTRANAPAVLPHVVDERYIDGELCFVYADGSHQPKIVDGKPVNPNWGVTKAGKPRKRLAQACLTCREKKIKCQPNRPKCDQCQKSGRECRFENALRGNRPRGSHSVGPSGNATSEIIGAVYDITRASDSGASLPGSGHSPISESVGLTPSGIEITHDPMLDAERAYRQRAYRIPRPFEEDSHIRHTTYPETNRLPEYQEILGEMRDTGPDDPLLASWNVDPFDHDPEMTLHYVDTFFTYVNDGLYHIFPHARFILWLKSCNTKSQEDKMVLYSMMALGSIFSDRPDKVSALRRYSRIARFAIQRSQHNLCLQLVQSHLLMGLLYYAAGSLVAAWDAVGSAGRAVSGLRFNIESGGVIVGQNQPCEYGLHPQALIECRRRTFWVAFILDRISSLFSVPSTTIPSESALIRLPCREDIYEAQQYATAPYFQNILNQASRFSEDDRHSLSPMAFVIQILSIWGDVSFQTLRLSHAPTECWLQLAEDFHTEIIQRTDDWINQLPEHLTFSVANMERASQAKKVDAFVGIHMFYHATLMKLYRHARYQSLRPEALARHIHRARYHAVEILRIALAVVQYAHDVQASRSTSDSSSAHGTLLGPFLAHVVVSAVDVLSAGGMVTELPDCISFTNGAYGMVQLLGHHWESSICLANLIKKRLDAMIDCANDRSRNQEKICFAVDGPSLETRIPTGTPSPPQGTLDEDLFYGALPRDVLLKAMRGDDTLSADKNIAWFNDQ"
2,binds,"E3 ubiquitin-protein ligase Bre1 homolog (PDE_03581) (protein, UniProt S7ZDA7 1-705) MEDRKRPAADSNESAPPSKKQATTVNGTSKPHPDADMPWRDDLERFQKDAILRQMQEYKREKAGLESQLNRMSKAAAHHDDHLRAIDAWFRQLVDEVKILLGTSHEQTKEMTFKSSLQFEDVSEFEAHLKARSDDIREIISLFQSKMDSLSPDVTSLQNELAKKLAEEKITIAKLEQTIAEKQQLEESLEAASLRYMVAEKKLDRARSLTVAKLEKQYLLGGKRPGSEGAGARRDEGSPANGGPSGSERNAELEDSYNKLNVVSEKQKEQLQKLEAENANLLSQITDIKVKSSKFTDDDYAHTDLFKQLRSQHDDVVKRINHLEATNTQLREEAEKYRSERNAYKLQLEEESNAAIAEKEAALMRAETDLARIRNARDELFADQQIRKTTQDQEKLTGAKLQELADAREARIAALESEVERLRVQTGESKTNSDIDKIPVEELRTKYASLERQYSMLNTELSSMQTAYKKFSTLASQKVTDFKALEDKVARLAAEKSKADQKYFAAMKSKEARDAEVRTLRMQNSKTSDIVSQLKESEAATRSLLANMDKQVNEMKEALNSASEKQRTSQQQLTESNIVVEGLKSQVTELKNLSTSKDATLSSTSAALRQAETEIVGLKQSLADTKKSLDNWKNKSLGNNSSEYEMLRTLALCTVCRRNFKNTVIKTCGHVFCKDCVEERLTSRSRKCPNCNRSFGSNDHMHITL"
3,binds,"PDE_04990 (Zn2Cys6 class fungal-specific transcription factor) (protein, UniProt S7ZH90 1-734) MREKLVLEKSRVPRLRPRDSSRKVGLPRVDRTLEIHGTHIKKTIRDIRLDTKSLARLADTLDRDGDGARVTTSDTSTEIQGLVEMGDETCTMDPVDDQTTHYSGEFSYWNFSMRLKQQIEQMGGLESQSHDSDRAWDFPRAHQLRPVGSHLSAAMSCSPPRPVGEFLARVFFKYVETHYYFIEKTWFIDKMNLLYEDPSRFATKGGEVIISILLTVFAIGSQYAHLESTASGLRDQQEQSFSEEDIGATFYQQAIRLLPEIIELSSLESVQACLLFGYYALPVDTSGLGYVYVNLAIRLGMQNGMHRKCATGAFNATMVETRNRVWWTAYLLERKISIFHGRPLSVLQKDVDASLPVFREGMESEDSRTSVARAEASVQLIHYLEQLFTDVNALRGCQRNQIPKIIAHILASKEALKTWWDSLPKNLTSSALQPLPQLRSAMHFQLEHCLVRMFIGRPFLLRQESSDSTNTSPAESVITSGDKRHSSNRTRLSHKDLIDDCIESATEALGILQGLRDNTGLARASYVEYSSCRASLLVLIAYSIQQFSERYRNLLYKGLDMIREMSAAGESARSEVFLIETLERALARLHARIQRAEQGDSSQPEPSPSDYEAFKHWGAMMRDGVISTDTDSDRAPVSLGSAGSAGPLPEHSRVINQSFDQPWAFNPSQNTLSVSDQDMGMLCALDPLIDIPFFGAENSSPSAAWPMWTEAQVLEQFLSGSRLDSISEAQASHN"

row,Binder,binding
1,"PDE_04678 (Zn2Cys6 class fungal-specific transcription factor) (protein, UniProt S8AUB2 1-766) MTTPSPQRPAAPSPSEPPKKRAKYTQIACNECKRRKIKCTGGSPCSRCSRGKVFCSYPSDRTPIHETEFKDARVGSRFESIDQQLEEMQREMRTMSARLRQLEASSPNSIMPAKTNTQKELNRILNAPKSPTYVGPTSVEFGLRHNQPSSRLLASAHDRDESETAPLSNSTERSPGPLPTGPNSSSRAHLGFEEALRLLQVYEDLVGAMYPCVDMDSVRVYVQDYYGSHESITTSVADCQGSTPADQDWFFARDIQVLKLLLATALLAESHGRSELAAALADNVEDRFAARYKVAEVDMKEILIMTLLSIFHSYRDDEVISWRLIRNATSACMELGLHRQETWHRNGGVFPGELAWTWANRLFWCIYVLDRKWSFGSGLPFGMQDTDIDTDIPEPGESTPYLNCLISHARLSTKIWGLIMEWPRYSPSTTAIKCTELDDEVQQWIWSIPHELRFLPNLSFDSHVPTDRSRHSDRLMMLQVLLALQGNQLRILVYRQNLQSKERIAGDLAGASIAVETAKSTIHMLEYFSSVTNIYFDRPEPFNYFLISALAALLLAVLHAPSRFSHVCRPEFYTAINLVRRSATRARTSRRLQKLLRRLEQIQLHKGGDDHQAVTQSRSKDFVSRNSNGCTVEQRPSGPVAVTGLSAPHGSWEPTPESARTSTSVEHPTSNYERPMTSWNTSSGMDNDCSNVCENLSSFFKNAGDLLFDIDPTTSMELPSSSDASLARGVDVGFFSVPVNLQSPSQAFANFEDDNEELTRAMAGLL",binds

# Biological target: T2, PoAce1 fused with the TAP tag (HA-FLAG) at the C-terminus (Penicillium oxalicum)
# Assay: affinity purification with mass spectrometry; TAP-MS with PoAce1-HA-FLAG as bait from mycelia grown in VMMG; anti-FLAG M2 gel, 3xFLAG peptide elution, then anti-HA resin, 8 M urea elution; LC-MS/MS; WT 114-2 as control; biological triplicates
row,Binder,binding
1,"PDE_04678 (Zn2Cys6 class fungal-specific transcription factor) (protein, UniProt S8AUB2 1-766) MTTPSPQRPAAPSPSEPPKKRAKYTQIACNECKRRKIKCTGGSPCSRCSRGKVFCSYPSDRTPIHETEFKDARVGSRFESIDQQLEEMQREMRTMSARLRQLEASSPNSIMPAKTNTQKELNRILNAPKSPTYVGPTSVEFGLRHNQPSSRLLASAHDRDESETAPLSNSTERSPGPLPTGPNSSSRAHLGFEEALRLLQVYEDLVGAMYPCVDMDSVRVYVQDYYGSHESITTSVADCQGSTPADQDWFFARDIQVLKLLLATALLAESHGRSELAAALADNVEDRFAARYKVAEVDMKEILIMTLLSIFHSYRDDEVISWRLIRNATSACMELGLHRQETWHRNGGVFPGELAWTWANRLFWCIYVLDRKWSFGSGLPFGMQDTDIDTDIPEPGESTPYLNCLISHARLSTKIWGLIMEWPRYSPSTTAIKCTELDDEVQQWIWSIPHELRFLPNLSFDSHVPTDRSRHSDRLMMLQVLLALQGNQLRILVYRQNLQSKERIAGDLAGASIAVETAKSTIHMLEYFSSVTNIYFDRPEPFNYFLISALAALLLAVLHAPSRFSHVCRPEFYTAINLVRRSATRARTSRRLQKLLRRLEQIQLHKGGDDHQAVTQSRSKDFVSRNSNGCTVEQRPSGPVAVTGLSAPHGSWEPTPESARTSTSVEHPTSNYERPMTSWNTSSGMDNDCSNVCENLSSFFKNAGDLLFDIDPTTSMELPSSSDASLARGVDVGFFSVPVNLQSPSQAFANFEDDNEELTRAMAGLL",binds
2,"PDE_05998 (uncharacterized protein) (protein, UniProt S7ZL42 1-846) MELSRQVLSTGWSFRDRDGEEWMPVKAVPSVVQQDLMNNNKLDDPFIGFNELKARWVNEKSWVYRNTFKRPQVPEGCSIDLVFDGLDTFATVKLDGNVILQSDNMFLGHRVNVTEALEAEGDHVLEIEFDCALQRAREIKAEHPDHVWVGFNGDTSRLAVRKAQYHWGWDWGPVLMTAGIWRPIVLEVYTARVVDLWAQTQLAADHQSAGITAVAKFDNASGGDFTARFSLSLNGNEIAAEEVPVSSENQAKMTVKVDNPKLWWPHGYGEQTLYKISVSLRRGNTQVAESSKNFGIRTAEVIQQPDKHGKSFYFRINGMDIFCGGSCWIPTDSLLTNVSADRYRKWIQLMVEGRQIMIRVWGGGIYEDAAFYEACDELGVLVWQDFMFGCGNYPTWPSLLESIREEAIYNVQRLRHHPSIVIWVGNNEDYQVQESEGLTYNYEDKDPESWLKTNFPARYIYEKLLPEVVAENSPSTFYHPGSPWGDGKKSSDTTVGDMHQWNVWHGTQEKYQIFDTLGGRFNSEFGMEAFPHLSTIEYFVEDPKDLFPQSHVIDFHNKADGHERRLATYLVENLRTATDLETYIYLTQVVQAETMMFGYRGWRRQWGDERHCGGALLWQLNDCWPTISWAIADYFLNPKPAYYAVKRVLNPIAVGVRREHHDWSVAHAQPPRTSKYELWVSSNNPEAVRGSIELRFLSVNTGRDIRTPILREDIVLTANGTTNIITDGLLDHIAEPEPHVLAARLWVDHKVVARDVDWPQPFKYLNLSDRGLEVQLKRSSPEKATLIVNSRKPVKCLVIEEQEGVRISDNAIDIVPGDEQVIEVTGLGDKSLKFRYLGQECVELVQ",binds

# Results are given in words; binding and its absence hold for the method and conditions named. In cells and extracts the contact can be indirect. Here binding means that the protein was enriched with, or labelled near, the bait; the list need not be complete. Tags and fused reporters may be left off the sequences shown.
